Data: paper PMC8256295
No constants are given. Whether binding was seen depends on the method and setting. For some of these results: Binding seen in cells or lysates may run through a third protein. Some entries that bind do so weakly or less than the wild type. For some of these results: Sequences can lack the tags named with a protein.

By UniProt entry, the sequences of proteins in these tests, tags left out.
UniProt O08573: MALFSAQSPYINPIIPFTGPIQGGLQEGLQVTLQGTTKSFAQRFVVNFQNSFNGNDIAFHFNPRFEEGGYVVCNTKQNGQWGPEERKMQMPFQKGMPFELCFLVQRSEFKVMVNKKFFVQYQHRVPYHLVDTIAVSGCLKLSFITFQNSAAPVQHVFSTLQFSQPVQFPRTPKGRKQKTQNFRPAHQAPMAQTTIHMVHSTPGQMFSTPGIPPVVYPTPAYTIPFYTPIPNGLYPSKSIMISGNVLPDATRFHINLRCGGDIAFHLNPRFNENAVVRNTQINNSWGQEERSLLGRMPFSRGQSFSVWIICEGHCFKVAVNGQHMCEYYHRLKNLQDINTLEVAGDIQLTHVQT

Assays:
[1] = biological target: T1, transforming growth factor β-activated kinase 1 (TAK1) (plasmid-expressed in HEK293T cells) (UniProt O43318); assay: co-IP; HEK293T cells transiently transfected for 48 h; lysates incubated with anti-Flag M2 Affinity Gel and anti-GFP agarose beads at 4°C overnight; immunoblot
T1 sequence: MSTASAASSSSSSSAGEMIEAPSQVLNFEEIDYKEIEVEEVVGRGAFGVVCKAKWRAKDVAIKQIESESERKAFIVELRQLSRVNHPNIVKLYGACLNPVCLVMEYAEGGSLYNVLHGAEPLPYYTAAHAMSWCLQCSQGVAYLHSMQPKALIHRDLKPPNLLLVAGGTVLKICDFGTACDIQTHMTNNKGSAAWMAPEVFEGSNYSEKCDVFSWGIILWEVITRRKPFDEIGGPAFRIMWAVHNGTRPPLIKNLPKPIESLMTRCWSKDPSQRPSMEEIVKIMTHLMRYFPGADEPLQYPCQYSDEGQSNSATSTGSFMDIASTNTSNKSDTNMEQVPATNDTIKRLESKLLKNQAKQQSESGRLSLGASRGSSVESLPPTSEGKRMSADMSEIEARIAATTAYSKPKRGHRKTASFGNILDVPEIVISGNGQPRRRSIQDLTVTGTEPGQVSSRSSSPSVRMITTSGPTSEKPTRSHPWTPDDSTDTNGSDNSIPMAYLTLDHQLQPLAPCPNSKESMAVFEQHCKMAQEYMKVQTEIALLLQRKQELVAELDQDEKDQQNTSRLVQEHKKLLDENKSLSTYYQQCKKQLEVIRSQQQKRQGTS

[2] = biological target: T2, TAK1, endogenous in THP-1 cells (human (endogenous in THP-1)) (UniProt O43318); assay: co-IP; endogenous proteins; THP-1 cells or mouse primary peritoneal macrophages left unstimulated or stimulated with AG (1 μg/ml) for 1 h; lysates incubated with anti-TAK1 antibody and protein A/G sepharose at 4°C overnight; immunoblot
T2 sequence: T1 sequence

[3] = biological target: T3, TAK1, endogenous in mouse peritoneal macrophages (mouse (endogenous in peritoneal macrophages)) (UniProt Q62073); assay: as above
T3 sequence: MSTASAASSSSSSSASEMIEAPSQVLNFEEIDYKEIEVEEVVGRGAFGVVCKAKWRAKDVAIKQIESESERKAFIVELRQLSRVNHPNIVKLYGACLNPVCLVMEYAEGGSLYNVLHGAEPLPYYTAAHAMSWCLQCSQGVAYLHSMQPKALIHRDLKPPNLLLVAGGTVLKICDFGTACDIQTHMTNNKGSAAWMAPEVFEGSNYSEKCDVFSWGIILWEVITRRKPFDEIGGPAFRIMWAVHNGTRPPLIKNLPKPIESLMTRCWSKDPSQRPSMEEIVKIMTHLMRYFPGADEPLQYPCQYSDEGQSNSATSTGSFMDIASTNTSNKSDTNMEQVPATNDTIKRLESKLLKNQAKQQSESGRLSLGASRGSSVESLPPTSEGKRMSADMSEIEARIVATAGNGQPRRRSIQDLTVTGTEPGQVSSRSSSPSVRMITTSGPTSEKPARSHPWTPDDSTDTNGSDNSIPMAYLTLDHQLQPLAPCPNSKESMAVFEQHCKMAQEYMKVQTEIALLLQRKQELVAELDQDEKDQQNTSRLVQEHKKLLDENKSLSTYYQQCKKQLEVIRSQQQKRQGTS

GST-tagged TAK1 = biological target: T4, GST-tagged TAK1 (UniProt O43318); assay: pull-down; in vitro GST precipitation: purified His-tagged galectin-9 with GST alone or GST-tagged TAK1; both purified
T4 sequence: T1 sequence

Substance: Galectin-9 (plasmid-expressed in HEK293T cells) (from UniProt O00182 1-355)
- binding [1]: binds

Substance: galectin-9, endogenous in THP-1 cells (from UniProt O00182 1-355)
- binding [2]: binds

Substance: galectin-9, endogenous in mouse peritoneal macrophages (from UniProt O08573 1-353)
- binding [3]: binds

Substance: purified histidine (His)-tagged Galectin-9 (from UniProt O00182 1-355)
- binding (GST-tagged TAK1): binds
